Results taken from article PMC8213820.

The chains behind the UniProt entries cited, without tags or fusion partners. Residues count along the entry.
UniProt B6KAM0, residues 67-569: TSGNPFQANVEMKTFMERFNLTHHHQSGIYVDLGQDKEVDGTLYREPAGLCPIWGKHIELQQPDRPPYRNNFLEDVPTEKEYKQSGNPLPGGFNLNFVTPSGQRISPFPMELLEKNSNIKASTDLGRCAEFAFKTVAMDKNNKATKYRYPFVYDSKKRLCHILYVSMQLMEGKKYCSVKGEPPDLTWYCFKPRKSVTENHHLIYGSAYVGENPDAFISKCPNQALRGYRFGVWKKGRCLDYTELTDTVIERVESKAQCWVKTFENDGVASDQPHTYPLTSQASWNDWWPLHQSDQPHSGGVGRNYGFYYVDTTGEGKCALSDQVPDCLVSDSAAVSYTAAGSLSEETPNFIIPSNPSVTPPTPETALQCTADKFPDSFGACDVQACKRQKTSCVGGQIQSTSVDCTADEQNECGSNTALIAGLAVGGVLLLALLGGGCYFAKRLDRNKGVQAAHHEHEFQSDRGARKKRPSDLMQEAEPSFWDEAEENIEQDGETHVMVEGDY

What was measured:
[1] = biological target: T1, RON4-3Ty (Toxoplasma gondii) (UniProt B6KJ32); test: affinity purification with mass spectrometry
T1 sequence: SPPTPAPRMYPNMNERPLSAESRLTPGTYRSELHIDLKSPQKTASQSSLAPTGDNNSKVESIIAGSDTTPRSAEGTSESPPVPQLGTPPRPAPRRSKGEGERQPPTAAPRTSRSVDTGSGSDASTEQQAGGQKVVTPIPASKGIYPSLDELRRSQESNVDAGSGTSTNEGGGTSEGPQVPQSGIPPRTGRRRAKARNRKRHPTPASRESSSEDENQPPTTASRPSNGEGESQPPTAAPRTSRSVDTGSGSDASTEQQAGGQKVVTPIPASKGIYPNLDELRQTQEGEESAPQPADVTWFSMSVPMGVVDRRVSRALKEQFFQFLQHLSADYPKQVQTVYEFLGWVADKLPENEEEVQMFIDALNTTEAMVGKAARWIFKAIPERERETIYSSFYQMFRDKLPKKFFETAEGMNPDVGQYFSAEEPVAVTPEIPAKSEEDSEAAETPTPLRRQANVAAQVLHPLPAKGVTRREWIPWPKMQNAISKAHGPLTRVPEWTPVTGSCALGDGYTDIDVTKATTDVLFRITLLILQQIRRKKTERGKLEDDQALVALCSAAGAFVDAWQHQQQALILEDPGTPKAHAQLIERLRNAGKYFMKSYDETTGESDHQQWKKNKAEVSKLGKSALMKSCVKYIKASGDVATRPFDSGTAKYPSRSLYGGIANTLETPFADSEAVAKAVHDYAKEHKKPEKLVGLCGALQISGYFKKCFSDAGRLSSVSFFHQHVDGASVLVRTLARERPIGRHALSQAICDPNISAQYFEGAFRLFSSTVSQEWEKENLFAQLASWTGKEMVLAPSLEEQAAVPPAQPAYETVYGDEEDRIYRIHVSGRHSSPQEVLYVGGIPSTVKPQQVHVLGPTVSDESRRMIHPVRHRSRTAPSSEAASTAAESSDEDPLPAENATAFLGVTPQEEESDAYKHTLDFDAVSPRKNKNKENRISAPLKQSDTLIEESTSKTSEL

[2] = biological target: T2, RON4, endogenous in T. gondii tachyzoites (Toxoplasma gondii (endogenous in RH tachyzoites)) (UniProt B6KJ32); test: affinity purification with mass spectrometry
T2 sequence: T1 sequence

Question: How did the binding [1] turn out when AMA1 (from UniProt B6KAM0) was run?
Answer: The binding was “binds”.

Question: For “microneme protein AMA1 (from UniProt B6KAM0)”, which binding [2] is on record?
Answer: The binding was “binds”.

Results are given in words; binding and its absence hold for the method and conditions named. Binding seen in cells or lysates may run through a third protein. These calls come from enrichment with a bait or labelling near it, and not all partners need be listed.
